# According to the supplement of paper PMC12819154, “High-throughput peptide-centric local stability assay extends protein–ligand identification to membrane proteins, tissues and bacteria” (Nature Structural & Molecular Biology, 2025):
# The chains behind the UniProt entries cited, without tags or fusion partners. Where a name states a change or a piece, a line headed by the entry shows the natural chain unless it says otherwise.
# UniProt A6NHL2: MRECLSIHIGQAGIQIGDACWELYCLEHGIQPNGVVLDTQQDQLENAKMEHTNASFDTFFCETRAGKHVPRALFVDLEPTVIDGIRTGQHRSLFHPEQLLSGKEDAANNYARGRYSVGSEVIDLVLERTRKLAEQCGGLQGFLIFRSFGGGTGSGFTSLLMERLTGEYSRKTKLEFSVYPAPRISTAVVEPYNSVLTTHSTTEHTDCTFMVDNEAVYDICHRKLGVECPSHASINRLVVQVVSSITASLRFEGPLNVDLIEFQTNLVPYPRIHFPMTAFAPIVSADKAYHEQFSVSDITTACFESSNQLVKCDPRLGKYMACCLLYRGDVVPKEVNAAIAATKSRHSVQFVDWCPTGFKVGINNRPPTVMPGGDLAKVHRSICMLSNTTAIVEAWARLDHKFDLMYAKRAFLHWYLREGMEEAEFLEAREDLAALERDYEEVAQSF
# UniProt A0JLT2: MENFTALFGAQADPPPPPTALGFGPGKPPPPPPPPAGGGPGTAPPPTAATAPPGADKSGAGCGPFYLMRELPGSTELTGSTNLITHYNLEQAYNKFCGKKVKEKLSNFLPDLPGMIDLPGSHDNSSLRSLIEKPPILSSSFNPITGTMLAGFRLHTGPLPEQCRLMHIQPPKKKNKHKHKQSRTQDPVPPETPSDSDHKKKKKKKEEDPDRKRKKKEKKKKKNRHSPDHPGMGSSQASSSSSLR
# UniProt A3KN83: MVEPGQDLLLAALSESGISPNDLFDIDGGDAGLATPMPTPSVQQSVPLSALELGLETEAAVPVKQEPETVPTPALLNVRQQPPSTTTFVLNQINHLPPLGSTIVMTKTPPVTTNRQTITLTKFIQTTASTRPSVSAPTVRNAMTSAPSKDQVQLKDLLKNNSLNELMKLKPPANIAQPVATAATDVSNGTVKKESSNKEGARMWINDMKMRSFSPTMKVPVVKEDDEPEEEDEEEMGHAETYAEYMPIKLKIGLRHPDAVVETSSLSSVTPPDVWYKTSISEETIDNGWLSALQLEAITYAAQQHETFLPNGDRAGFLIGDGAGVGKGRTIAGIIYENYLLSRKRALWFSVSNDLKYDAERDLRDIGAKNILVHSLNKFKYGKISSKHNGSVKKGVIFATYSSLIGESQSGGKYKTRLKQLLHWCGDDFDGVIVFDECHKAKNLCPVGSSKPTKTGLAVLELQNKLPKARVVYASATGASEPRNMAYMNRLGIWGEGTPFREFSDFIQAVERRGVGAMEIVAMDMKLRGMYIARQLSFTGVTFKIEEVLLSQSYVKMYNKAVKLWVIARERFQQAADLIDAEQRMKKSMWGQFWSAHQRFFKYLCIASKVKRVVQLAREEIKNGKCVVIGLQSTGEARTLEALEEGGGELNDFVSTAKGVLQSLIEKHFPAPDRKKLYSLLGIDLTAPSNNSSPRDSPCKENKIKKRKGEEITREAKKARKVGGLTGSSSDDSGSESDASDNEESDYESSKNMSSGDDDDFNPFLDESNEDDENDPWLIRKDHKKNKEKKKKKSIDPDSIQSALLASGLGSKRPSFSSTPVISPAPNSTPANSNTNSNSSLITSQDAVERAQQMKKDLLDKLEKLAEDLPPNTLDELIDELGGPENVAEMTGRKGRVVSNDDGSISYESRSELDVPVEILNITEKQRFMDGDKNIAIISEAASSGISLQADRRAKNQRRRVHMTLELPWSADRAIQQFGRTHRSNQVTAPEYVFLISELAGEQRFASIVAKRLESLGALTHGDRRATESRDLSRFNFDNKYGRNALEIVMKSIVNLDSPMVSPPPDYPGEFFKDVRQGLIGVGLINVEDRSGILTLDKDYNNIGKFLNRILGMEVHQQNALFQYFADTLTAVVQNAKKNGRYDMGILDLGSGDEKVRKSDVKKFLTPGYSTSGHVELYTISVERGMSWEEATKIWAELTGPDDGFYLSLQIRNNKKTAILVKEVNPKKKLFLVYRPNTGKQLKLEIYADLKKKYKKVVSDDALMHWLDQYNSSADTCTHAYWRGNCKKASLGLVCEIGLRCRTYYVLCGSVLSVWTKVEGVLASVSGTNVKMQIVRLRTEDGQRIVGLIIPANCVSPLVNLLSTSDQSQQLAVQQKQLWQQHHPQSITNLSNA
# The list shows a part of the results. Most entries show no effect beyond the scatter of the controls.
# Compound: Cc1nc(Nc2ncc(C(=O)Nc3c(C)cccc3Cl)s2)cc(N2CCN(CCO)CC2)n1 [dasatinib]
# Assay: log2 fold change of tryptic peptide abundance, ligand vs vehicle (limited proteolysis) (log2 ratio); higher = more trypsin-susceptible (destabilized)
# Conditions: ligand concentration: 5 uM; sample: K562 cleared lysate
row,Target,log2 fold change
1,"A0A0U1RRE5 (peptide sequence: STLPPGNAR, peptide start residue: 11), A0A0U1RRE5",-0.302
2,"TUBAL3 (peptide sequence: SLFHPEQLLSGKEDAANNYAR, peptide start residue: 92) (UniProt A6NHL2)",0.218
3,"MED19 (peptide sequence: TQDPVPPETPSDSDHK, peptide start residue: 184) (UniProt A0JLT2)",0.549
4,"SBNO1 (peptide sequence: RLESLGALTHGDRR, peptide start residue: 1012) (UniProt A3KN83)",-0.933
